The list shows a part of the results.
Legend:
Experiment in all cases: log2 fold change, soluble protein after heating vs DMSO (PISA); higher = thermal stabilisation; K562 cells, 10 uM, 30 min; active = over 0.2 and 3.5 SD of the protein, either way, in both replicates (recomputed)
volasertib = compound: CC[C@@H]1C(=O)N(C)c2cnc(Nc3ccc(C(=O)N[C@H]4CC[C@H](N5CCN(CC6CC6)CC5)CC4)cc3OC)nc2N1C(C)C [volasertib]
How it was run: (§1)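 K562 cells (2×10^6 cells/mL) were treated with 10 μM compound for 30 min, and aliquots were heated for 3 min over 48°C-58°C. Pooled aliquots were extracted in PBS with 0.5% NP-40 at 4°C, and the supernatant after 21,000xg for 90 min was measured by TMTpro 16plex LC-MS/MS with channel sums equalised. Reported thermal stability, relative to control samples and from duplicates, is a log2 fold change.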

The chains behind the UniProt entries cited, without tags or fusion partners. Where a name states a change or a piece, a line headed by the entry shows the natural chain unless it says otherwise.
UniProt Q9Y4L5, whole entry, looked up: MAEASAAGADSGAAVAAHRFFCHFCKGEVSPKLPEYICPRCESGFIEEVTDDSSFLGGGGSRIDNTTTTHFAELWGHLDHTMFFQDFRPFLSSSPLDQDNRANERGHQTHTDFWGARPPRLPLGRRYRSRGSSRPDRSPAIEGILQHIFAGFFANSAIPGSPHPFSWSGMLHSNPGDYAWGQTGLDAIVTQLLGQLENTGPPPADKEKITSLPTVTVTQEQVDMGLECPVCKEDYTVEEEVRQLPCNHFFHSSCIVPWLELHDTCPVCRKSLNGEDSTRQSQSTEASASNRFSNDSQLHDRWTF
UniProt Q92546: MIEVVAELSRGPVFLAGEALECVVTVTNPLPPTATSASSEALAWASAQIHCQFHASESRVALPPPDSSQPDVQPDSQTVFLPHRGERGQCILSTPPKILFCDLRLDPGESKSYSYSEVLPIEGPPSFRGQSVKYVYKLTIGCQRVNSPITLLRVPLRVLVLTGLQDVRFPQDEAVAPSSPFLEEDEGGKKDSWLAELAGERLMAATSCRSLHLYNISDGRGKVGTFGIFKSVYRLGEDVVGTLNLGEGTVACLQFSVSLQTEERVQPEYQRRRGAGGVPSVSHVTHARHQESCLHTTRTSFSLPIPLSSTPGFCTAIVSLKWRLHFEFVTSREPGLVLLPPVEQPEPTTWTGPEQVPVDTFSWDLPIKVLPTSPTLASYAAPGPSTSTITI
UniProt Q9NVN3: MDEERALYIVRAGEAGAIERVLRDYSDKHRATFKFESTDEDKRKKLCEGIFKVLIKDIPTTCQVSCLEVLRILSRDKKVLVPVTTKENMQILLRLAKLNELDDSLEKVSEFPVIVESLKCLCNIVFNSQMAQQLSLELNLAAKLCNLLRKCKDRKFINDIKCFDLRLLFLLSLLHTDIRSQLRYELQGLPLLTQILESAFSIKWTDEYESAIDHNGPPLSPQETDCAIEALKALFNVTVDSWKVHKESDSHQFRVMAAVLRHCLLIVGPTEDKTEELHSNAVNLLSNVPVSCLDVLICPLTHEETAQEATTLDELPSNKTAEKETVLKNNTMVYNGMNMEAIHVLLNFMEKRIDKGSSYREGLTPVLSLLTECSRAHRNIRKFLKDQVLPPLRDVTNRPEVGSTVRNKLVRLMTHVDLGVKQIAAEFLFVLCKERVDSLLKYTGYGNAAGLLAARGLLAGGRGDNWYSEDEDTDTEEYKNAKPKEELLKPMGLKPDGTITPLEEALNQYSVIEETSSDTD
UniProt Q8NDN9: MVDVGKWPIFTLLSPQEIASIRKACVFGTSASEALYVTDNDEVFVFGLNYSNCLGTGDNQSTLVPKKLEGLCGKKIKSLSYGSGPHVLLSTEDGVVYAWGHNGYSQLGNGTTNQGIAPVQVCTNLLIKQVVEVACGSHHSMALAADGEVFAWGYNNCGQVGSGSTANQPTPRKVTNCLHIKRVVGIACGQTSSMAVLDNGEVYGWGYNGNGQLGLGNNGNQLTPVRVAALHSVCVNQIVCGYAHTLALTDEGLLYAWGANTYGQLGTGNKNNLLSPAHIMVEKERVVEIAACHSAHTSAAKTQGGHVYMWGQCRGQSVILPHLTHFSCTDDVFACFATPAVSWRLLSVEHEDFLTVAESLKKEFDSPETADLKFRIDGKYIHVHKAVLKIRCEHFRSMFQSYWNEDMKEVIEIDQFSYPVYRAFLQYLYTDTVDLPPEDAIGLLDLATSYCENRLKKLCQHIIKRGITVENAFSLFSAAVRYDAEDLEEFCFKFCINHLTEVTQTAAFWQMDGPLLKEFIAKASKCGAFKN
UniProt Q92963, whole entry, looked up: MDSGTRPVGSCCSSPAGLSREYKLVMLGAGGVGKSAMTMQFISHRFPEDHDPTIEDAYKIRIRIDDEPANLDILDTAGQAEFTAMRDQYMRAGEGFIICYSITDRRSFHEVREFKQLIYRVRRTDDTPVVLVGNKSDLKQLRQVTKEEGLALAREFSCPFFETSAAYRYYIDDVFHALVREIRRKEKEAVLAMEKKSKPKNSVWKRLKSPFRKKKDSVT
UniProt Q05823: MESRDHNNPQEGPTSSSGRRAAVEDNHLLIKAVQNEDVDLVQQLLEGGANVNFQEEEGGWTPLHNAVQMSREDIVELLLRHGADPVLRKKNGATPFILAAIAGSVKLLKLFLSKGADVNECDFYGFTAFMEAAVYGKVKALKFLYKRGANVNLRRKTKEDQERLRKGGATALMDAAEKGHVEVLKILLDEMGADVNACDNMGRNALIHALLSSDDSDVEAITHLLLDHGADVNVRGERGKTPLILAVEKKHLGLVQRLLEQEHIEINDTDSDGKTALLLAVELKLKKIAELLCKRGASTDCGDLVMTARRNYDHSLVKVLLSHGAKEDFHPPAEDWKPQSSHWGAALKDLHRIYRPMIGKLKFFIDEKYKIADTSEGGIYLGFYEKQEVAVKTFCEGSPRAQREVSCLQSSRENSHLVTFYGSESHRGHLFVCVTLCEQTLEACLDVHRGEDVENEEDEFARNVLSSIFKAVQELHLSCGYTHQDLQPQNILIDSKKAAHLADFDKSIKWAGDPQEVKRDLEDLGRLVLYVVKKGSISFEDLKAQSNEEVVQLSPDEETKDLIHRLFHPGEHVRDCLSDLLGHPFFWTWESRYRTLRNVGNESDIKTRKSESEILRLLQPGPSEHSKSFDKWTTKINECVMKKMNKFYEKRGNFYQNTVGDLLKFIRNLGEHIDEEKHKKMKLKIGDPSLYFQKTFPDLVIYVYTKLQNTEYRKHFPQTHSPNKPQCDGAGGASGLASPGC
UniProt Q2KHR2: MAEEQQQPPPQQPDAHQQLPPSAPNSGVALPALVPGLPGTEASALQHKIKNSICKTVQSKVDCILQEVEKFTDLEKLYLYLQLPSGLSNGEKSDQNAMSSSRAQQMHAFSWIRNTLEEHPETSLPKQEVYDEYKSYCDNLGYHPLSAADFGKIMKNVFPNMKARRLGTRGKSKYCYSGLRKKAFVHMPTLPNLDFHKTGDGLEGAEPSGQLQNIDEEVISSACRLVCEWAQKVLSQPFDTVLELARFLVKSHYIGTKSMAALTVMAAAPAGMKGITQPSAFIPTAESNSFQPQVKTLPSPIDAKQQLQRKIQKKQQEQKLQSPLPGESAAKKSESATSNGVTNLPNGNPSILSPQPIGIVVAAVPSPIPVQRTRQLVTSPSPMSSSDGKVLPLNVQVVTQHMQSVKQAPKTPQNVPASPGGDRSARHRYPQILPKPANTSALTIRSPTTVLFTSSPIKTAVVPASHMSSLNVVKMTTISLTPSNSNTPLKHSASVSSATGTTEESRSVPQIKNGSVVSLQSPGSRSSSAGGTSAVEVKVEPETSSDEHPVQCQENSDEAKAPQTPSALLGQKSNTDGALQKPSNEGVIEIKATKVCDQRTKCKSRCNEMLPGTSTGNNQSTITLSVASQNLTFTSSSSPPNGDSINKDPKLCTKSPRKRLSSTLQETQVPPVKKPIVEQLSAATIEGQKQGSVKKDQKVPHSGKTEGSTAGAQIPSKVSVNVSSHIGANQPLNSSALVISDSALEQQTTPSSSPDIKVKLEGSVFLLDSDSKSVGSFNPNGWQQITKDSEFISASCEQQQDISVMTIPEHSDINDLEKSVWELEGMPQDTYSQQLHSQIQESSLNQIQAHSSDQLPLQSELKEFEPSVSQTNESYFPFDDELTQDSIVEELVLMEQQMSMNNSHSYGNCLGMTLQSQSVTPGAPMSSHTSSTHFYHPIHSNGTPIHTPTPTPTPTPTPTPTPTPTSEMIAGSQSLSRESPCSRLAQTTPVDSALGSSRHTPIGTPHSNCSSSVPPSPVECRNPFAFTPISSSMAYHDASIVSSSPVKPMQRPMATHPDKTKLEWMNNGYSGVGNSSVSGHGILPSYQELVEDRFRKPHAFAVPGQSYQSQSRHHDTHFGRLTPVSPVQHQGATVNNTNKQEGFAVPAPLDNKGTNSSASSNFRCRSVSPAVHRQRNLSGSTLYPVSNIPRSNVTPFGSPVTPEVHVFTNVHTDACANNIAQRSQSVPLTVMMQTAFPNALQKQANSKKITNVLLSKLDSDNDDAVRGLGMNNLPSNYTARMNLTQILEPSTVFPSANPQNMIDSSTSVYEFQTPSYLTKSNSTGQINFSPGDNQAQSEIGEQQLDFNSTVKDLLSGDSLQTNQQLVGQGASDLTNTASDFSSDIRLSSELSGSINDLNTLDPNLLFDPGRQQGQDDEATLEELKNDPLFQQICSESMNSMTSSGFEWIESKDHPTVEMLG
UniProt O14593: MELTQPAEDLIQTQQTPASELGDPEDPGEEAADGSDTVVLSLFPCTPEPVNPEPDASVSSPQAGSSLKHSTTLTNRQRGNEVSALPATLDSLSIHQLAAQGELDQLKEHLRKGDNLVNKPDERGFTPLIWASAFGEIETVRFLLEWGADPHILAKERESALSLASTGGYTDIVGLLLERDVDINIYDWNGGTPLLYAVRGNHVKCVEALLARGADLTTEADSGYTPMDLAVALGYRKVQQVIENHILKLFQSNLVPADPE
UniProt Q6PCD5: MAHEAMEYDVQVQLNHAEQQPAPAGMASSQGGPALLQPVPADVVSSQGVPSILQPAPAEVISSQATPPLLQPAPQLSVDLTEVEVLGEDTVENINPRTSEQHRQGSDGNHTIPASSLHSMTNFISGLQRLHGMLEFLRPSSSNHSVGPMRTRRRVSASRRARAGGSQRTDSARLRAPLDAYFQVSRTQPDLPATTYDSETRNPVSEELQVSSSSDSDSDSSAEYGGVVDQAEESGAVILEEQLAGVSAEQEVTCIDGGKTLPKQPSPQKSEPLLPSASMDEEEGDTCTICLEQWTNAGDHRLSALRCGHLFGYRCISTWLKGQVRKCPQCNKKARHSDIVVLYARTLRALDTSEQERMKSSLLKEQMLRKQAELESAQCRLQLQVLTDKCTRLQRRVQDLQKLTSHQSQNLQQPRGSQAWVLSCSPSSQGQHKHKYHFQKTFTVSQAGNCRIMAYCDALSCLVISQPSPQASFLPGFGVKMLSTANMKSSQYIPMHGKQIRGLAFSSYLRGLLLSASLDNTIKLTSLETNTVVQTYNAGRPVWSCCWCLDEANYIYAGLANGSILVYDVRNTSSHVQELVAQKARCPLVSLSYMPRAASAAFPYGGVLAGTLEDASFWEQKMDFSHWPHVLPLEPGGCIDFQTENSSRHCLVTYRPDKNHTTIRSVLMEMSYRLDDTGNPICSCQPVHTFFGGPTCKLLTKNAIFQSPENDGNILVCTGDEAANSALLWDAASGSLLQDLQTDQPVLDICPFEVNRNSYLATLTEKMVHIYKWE
UniProt Q96A37: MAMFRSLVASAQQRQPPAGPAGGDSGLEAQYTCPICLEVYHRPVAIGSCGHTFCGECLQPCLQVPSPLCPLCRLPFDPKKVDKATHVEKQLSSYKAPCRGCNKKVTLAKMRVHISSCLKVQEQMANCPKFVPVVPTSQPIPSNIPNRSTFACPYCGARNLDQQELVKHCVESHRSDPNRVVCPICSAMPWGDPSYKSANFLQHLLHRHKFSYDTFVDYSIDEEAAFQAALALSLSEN
UniProt Q8WU17: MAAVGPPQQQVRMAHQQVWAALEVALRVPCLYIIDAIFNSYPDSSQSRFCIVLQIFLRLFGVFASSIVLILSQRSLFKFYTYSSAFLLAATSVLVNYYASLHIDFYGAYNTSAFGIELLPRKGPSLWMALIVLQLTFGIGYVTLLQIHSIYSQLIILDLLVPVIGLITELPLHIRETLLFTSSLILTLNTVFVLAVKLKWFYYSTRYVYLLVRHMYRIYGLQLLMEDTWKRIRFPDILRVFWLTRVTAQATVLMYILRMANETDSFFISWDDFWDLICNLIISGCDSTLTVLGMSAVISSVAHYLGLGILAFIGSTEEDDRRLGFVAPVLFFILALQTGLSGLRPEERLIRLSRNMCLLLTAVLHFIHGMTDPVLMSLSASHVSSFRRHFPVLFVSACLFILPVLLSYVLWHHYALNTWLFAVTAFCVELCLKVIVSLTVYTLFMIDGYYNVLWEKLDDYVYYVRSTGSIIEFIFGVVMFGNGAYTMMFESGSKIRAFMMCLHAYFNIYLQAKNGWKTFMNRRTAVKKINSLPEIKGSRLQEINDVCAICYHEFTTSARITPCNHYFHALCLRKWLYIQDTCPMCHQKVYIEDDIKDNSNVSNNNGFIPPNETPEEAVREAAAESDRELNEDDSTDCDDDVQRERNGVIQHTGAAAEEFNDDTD
UniProt O43567: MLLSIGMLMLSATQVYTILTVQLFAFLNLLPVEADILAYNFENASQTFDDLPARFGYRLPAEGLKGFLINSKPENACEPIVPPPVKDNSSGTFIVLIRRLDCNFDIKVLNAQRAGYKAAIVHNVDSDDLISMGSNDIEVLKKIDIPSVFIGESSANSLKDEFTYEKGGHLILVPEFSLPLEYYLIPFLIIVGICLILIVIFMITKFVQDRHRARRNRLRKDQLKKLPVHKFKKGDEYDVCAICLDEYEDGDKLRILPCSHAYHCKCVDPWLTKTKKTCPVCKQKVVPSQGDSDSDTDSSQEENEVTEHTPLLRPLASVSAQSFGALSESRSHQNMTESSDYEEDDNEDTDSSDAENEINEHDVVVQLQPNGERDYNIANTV

[1] = compound: CC[C@H](C)N1C=C(C2=C(C=C(C=C21)C3=CN=C(C=C3)N4CCNCC4)C(=O)NCC5=C(C=C(NC5=O)C)C)C
How it was run: as §1

epoxomicin = compound: CC[C@H](C)[C@@H](C(=O)N[C@@H]([C@@H](C)O)C(=O)N[C@@H](CC(C)C)C(=O)[C@]1(CO1)C)NC(=O)[C@H]([C@@H](C)CC)N(C)C(=O)C [epoxomicin]
How it was run: as §1

[2] = compound: CCn1cc(-c2ccnc3[nH]c(-c4cccc(CN(C)C)c4)cc23)c(-c2ccc(NC(=O)N(C)C)cc2)n1
How it was run: as §1

[3] = compound: CN(C)CC(=O)Nc1ccc2[nH]c(=O)c3ccccc3c2c1
How it was run: as §1

[4] = compound: CN1C2=C(C3=C1C(=O)N(N=C3)CC4=CC(=CC=C4)N)SC(=C2)S(=O)C
How it was run: as §1

[5] = compound: CN1CCC(CNc2ccc3ncc(-c4cccc(OC(F)(F)F)c4)n3n2)CC1
How it was run: as §1

[6] = compound: CCn1c(C(=O)N(C2CC2)C2CC2)cc2c3c(ncn3C)c(Nc3cc(C)n(C)n3)nc21
How it was run: as §1

rosiglitazone = compound: CN(CCOC1=CC=C(C=C1)C[C@H]2C(=O)NC(=O)S2)C3=CC=CC=N3 (racemic) [rosiglitazone]
How it was run: as §1

[7] = compound: CC[C@@H]1C(=O)N(C)c2cnc(Nc3ccc(C(=O)NC4CCN(C)CC4)cc3OC)nc2N1C1CCCC1
How it was run: as §1

Measured: log2 fold change

RNF167 (UniProt Q9H6Y7)
inactive: volasertib 0.003 | [1] -0.043 | epoxomicin 0.039 | [2] 0.057 | [3] -0.008 | [4] 0.05 | [5] -0.097

RHOXF2B (UniProt P0C7M4)
inactive: volasertib 0.128

RNF169 (UniProt Q8NCN4)
inactive: volasertib -0.036 | [2] 0.17 | [4] 0.153 | [5] -0.122

RNF115 (UniProt Q9Y4L5)
inactive: [1] 0.156

RGP1 (UniProt Q92546)
inactive: [1] 0.089 | epoxomicin -0.249 | [6] 0.038 | [3] 0.023 | rosiglitazone -0.242

RNF220 isoform 3 (UniProt Q5VTB9)
inactive: volasertib -0.31

RILPL2 (UniProt Q969X0)
inactive: epoxomicin -0.042

Five consecutive entries already listed, for reference:
RNF169 (UniProt Q8NCN4)
inactive: volasertib -0.036 | [2] 0.17 | [4] 0.153 | [5] -0.122

RNF115 (UniProt Q9Y4L5)
inactive: [1] 0.156

RGP1 (UniProt Q92546)
inactive: [1] 0.089 | epoxomicin -0.249 | [6] 0.038 | [3] 0.023 | rosiglitazone -0.242

RNF220 isoform 3 (UniProt Q5VTB9)
inactive: volasertib -0.31

RILPL2 (UniProt Q969X0)
inactive: epoxomicin -0.042

(list continues)

RIC8B isoform 1 (UniProt Q9NVN3)
inactive: epoxomicin 0.074 | [6] 0.187

RFX5 (UniProt P48382)
inactive: volasertib -0.076 | [1] 0.082 | epoxomicin -0.173 | [6] -0.138 | [2] 0.001 | rosiglitazone -0.041 | [5] -0.022

RBM6 (UniProt P78332)
inactive: volasertib -0.148 | [1] 0.094 | [2] 0.148 | [4] 0.109 | [5] 0.175

RCBTB1 (UniProt Q8NDN9)
inactive: epoxomicin 0.334 | [6] -0.051 | rosiglitazone 0.01 | [4] -0.007

RIT1 isoform 3 (UniProt Q92963)
inactive: epoxomicin 0.104 | [6] 0.01 | [2] -0.089 | [5] 0.4

RBP1 isoform 3 (UniProt P09455)
inactive: [2] 0.431 | [4] 0.177 | [5] 0.162

RFC1 (UniProt P35251)
inactive: [2] 0.127 | [3] -0.042 | [4] 0.091 | [5] -0.321

RILPL1 (UniProt Q5EBL4)
inactive: [7] -0.039 | epoxomicin -0.045 | [6] -0.028 | [3] -0.011 | [4] -0.097

RBM48 isoform 2 (UniProt Q5RL73)
inactive: volasertib -0.003 | [1] 0.002 | epoxomicin 0.003 | [2] 0.078 | [5] 0.114

RGS14 (UniProt O43566)
inactive: [7] 0 | [1] -0.098 | epoxomicin -0.06 | [6] -0.01 | [2] 0.147 | [3] -0.147 | rosiglitazone -0.006 | [5] 0.086

RNASEL (UniProt Q05823)
inactive: [2] 0.051 | [5] 0.001

RHD (UniProt Q02161)
inactive: volasertib 0.073 | [1] 0.094 | [6] -0.129

RFX7 (UniProt Q2KHR2)
inactive: [4] -0.098

RNF141 (UniProt Q8WVD5)
inactive: volasertib 0.154 | [1] 0.134 | [6] -0.08 | [2] -0.023 | [3] -0.083 | rosiglitazone 0.076 | [5] 0.113

RNF168 (UniProt Q8IYW5)
inactive: volasertib -0.108 | [1] -0.388 | [6] 0.059 | rosiglitazone -0.108 | [4] 0.046

RFXANK (UniProt O14593)
inactive: epoxomicin 0.108 | [2] -0.038 | [5] 0.028

RIOX1 (UniProt Q9H6W3)
inactive: [7] 0.247 | [2] 0.294 | [5] 0.05

RCL1 (UniProt Q5VZU2)
inactive: epoxomicin -0.118 | [4] 0.069

RGCC (UniProt Q9H4X1)
inactive: [1] -0.416 | [6] 0.047 | [2] -0.034 | rosiglitazone 0.022 | [5] 0.296

RFWD3 (UniProt Q6PCD5)
inactive: volasertib 0.183 | epoxomicin 0.09 | [6] 0.23 | [3] -0.076

RNF166 (UniProt Q96A37)
inactive: volasertib -0.182 | [6] 0.004 | [2] 0.07 | [3] -0.046 | [4] -0.002 | [5] -0.01

RNF139 (UniProt Q8WU17)
inactive: [7] -0.073 | [1] -0.084 | epoxomicin -0.027 | [6] -0.016 | [2] -0.2 | [3] -0.012 | rosiglitazone 0.052 | [5] 0.008

RNF13 (UniProt O43567)
inactive: [7] 0.043 | epoxomicin -0.099 | [3] -0.076 | rosiglitazone -0.075 | [4] 0.111

Reference: the supplement of paper PMC10849652
